According to paper PMC6478927:
No constants are given. Whether binding was seen depends on the method and setting. Binding seen in cells or lysates may run through a third protein. Some results given as binding are weak or reduced against the parent protein; the word gives no strength. For some of these results: Tags and fused reporters may be left off the sequences shown. Each block holds one molecule with its values, some of them ahead of it.

Protein sequences, listed by entry. Tags and fused reporters are not part of them.
UniProt Q8N5F7: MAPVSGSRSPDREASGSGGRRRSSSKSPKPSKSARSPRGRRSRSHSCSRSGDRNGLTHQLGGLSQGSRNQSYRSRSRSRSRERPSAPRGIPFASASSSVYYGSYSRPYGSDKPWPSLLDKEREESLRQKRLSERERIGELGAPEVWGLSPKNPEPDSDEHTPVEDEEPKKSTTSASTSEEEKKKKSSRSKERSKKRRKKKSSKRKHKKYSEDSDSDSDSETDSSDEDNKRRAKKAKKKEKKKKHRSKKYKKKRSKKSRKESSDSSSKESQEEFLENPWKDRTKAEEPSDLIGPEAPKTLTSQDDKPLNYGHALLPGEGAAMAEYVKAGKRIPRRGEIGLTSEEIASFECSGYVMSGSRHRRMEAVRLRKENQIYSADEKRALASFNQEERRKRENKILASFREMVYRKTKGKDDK

What was measured:
[1] = target: T1, DiGeorge critical region 8 (DGCR8) (human (endogenous in PANC-1)) (UniProt Q8WYQ5); experiment: co-IP; anti-DGCR8 co-IP, Western blot of candidates from the proteomic screen
T1 sequence: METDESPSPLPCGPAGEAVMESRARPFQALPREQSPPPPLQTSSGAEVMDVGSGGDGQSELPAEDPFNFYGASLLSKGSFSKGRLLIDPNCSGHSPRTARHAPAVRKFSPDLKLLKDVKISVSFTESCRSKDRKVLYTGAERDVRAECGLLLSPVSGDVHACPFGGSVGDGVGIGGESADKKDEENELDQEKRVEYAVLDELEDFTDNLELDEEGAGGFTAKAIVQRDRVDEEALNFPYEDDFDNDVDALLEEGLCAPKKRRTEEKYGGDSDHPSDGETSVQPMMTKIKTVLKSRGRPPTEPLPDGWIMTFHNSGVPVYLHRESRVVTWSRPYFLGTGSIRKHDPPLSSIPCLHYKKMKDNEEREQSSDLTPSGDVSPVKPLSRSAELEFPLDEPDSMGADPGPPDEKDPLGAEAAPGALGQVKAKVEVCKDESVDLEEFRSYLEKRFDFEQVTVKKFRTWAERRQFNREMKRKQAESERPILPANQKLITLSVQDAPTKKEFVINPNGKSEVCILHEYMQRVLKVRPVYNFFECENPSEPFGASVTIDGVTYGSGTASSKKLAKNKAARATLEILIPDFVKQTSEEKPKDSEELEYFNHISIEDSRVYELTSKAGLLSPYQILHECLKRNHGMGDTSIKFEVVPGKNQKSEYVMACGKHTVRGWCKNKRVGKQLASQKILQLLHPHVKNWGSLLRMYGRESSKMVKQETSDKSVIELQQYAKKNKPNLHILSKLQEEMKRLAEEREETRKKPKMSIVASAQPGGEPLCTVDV

[2] = target: T2, DGCR8-6 × His (whole length) (UniProt Q8WYQ5); experiment: co-IP; His-tagged DGCR8 and FLAG-tagged NKAP (wild-type versus domain truncation mutants) co-transfected into PANC-1 cells; Western blot
T2 sequence: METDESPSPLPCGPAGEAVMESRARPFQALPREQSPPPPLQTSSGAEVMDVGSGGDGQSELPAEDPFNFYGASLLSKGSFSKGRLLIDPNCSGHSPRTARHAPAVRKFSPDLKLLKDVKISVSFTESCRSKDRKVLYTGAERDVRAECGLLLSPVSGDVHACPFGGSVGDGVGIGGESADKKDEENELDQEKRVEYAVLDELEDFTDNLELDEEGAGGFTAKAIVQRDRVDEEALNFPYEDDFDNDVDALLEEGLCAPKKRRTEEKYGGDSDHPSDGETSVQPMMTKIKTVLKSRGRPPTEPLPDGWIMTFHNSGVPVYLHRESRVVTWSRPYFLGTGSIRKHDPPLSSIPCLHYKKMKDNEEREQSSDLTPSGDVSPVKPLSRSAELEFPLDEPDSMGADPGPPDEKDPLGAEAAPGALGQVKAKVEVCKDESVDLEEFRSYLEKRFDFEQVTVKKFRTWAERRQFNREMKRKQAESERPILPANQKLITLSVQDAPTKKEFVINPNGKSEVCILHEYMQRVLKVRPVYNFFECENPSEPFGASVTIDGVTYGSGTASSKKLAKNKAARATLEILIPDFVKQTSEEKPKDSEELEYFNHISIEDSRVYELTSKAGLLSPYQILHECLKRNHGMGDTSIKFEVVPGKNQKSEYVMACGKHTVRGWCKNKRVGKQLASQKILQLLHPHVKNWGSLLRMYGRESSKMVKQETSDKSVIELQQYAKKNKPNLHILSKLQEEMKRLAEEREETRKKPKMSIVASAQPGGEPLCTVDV

[3] = target: T1, DiGeorge critical region 8 (DGCR8) (human (endogenous in PANC-1)); experiment: co-IP; reciprocal immunoprecipitation from PANC-1 cells expressing FLAG-tagged NKAP; 1 x RIPA lysate, supernatant treated with RNase A (20 μg/ml) before immunoprecipitation
[4] = target: NKAP-3 × FLAG (whole length) (UniProt Q8N5F7); experiment: as above

binding [1]: binds
Molecule: NF-κB associated protein (NKAP) (from UniProt Q8N5F7 1-415)

binding [2]: binds | binding [3]: binds
Molecule: NKAP-3 × FLAG (whole length) (from UniProt Q8N5F7 1-415)

binding [4]: binds
B1: RNase III enzyme RNASEN (Drosha) (enzyme, UniProt Q9NRR4 1-1374)
chain: MMQGNTCHRMSFHPGRGCPRGRGGHGARPSAPSFRPQNLRLLHPQQPPVQYQYEPPSAPSTTFSNSPAPNFLPPRPDFVPFPPPMPPSAQGPLPPCPIRPPFPNHQMRHPFPVPPCFPPMPPPMPCPNNPPVPGAPPGQGTFPFMMPPPSMPHPPPPPVMPQQVNYQYPPGYSHHNFPPPSFNSFQNNPSSFLPSANNSSSPHFRHLPPYPLPKAPSERRSPERLKHYDDHRHRDHSHGRGERHRSLDRRERGRSPDRRRQDSRYRSDYDRGRTPSRHRSYERSRERERERHRHRDNRRSPSLERSYKKEYKRSGRSYGLSVVPEPAGCTPELPGEIIKNTDSWAPPLEIVNHRSPSREKKRARWEEEKDRWSDNQSSGKDKNYTSIKEKEPEETMPDKNEEEEEELLKPVWIRCTHSENYYSSDPMDQVGDSTVVGTSRLRDLYDKFEEELGSRQEKAKAARPPWEPPKTKLDEDLESSSESECESDEDSTCSSSSDSEVFDVIAEIKRKKAHPDRLHDELWYNDPGQMNDGPLCKCSAKARRTGIRHSIYPGEEAIKPCRPMTNNAGRLFHYRITVSPPTNFLTDRPTVIEYDDHEYIFEGFSMFAHAPLTNIPLCKVIRFNIDYTIHFIEEMMPENFCVKGLELFSLFLFRDILELYDWNLKGPLFEDSPPCCPRFHFMPRFVRFLPDGGKEVLSMHQILLYLLRCSKALVPEEEIANMLQWEELEWQKYAEECKGMIVTNPGTKPSSVRIDQLDREQFNPDVITFPIIVHFGIRPAQLSYAGDPQYQKLWKSYVKLRHLLANSPKVKQTDKQKLAQREEALQKIRQKNTMRREVTVELSSQGFWKTGIRSDVCQHAMMLPVLTHHIRYHQCLMHLDKLIGYTFQDRCLLQLAMTHPSHHLNFGMNPDHARNSLSNCGIRQPKYGDRKVHHMHMRKKGINTLINIMSRLGQDDPTPSRINHNERLEFLGDAVVEFLTSVHLYYLFPSLEEGGLATYRTAIVQNQHLAMLAKKLELDRFMLYAHGPDLCRESDLRHAMANCFEALIGAVYLEGSLEEAKQLFGRLLFNDPDLREVWLNYPLHPLQLQEPNTDRQLIETSPVLQKLTEFEEAIGVIFTHVRLLARAFTLRTVGFNHLTLGHNQRMEFLGDSIMQLVATEYLFIHFPDHHEGHLTLLRSSLVNNRTQAKVAEELGMQEYAITNDKTKRPVALRTKTLADLLESFIAALYIDKDLEYVHTFMNVCFFPRLKEFILNQDWNDPKSQLQQCCLTLRTEGKEPDIPLYKTLQTVGPSHARTYTVAVYFKGERIGCGKGPSIQQAEMGAAMDALEKYNFPQMAHQKRFIERKYRQELKEMRWEREHQEREPDETEDIKK
